# Data from PubChem BioAssay AID540256 (National Center for Advancing Translational Sciences (NCATS), 2011).
# Hit rate of the full screen: of about 300,000 compounds, about 3,700 (1.2%) were called active. Inconclusive means that the source gave no clear call. Such entries were picked first, then a sample of the others. Calls follow the shape of the full dose curve; tested in HEK293 cells. Potencies beside an inconclusive call are fits to weak or partial responses and may not hold up.
# Test: qHTS for Inhibitors of binding or entry into cells for Lassa Virus; also: nearly all actives have a fitted effect of over 50% in size
# Settings: Lassa virus pseudotype entry inhibition, cell reporter; activity change, negative = inhibition: at 37.9 µM (top of the series) unless noted
# % is scaled to controls: 0 for no effect and ±100 for the full control effect; potency is read from the fitted curve at half-maximal effect.
SMILES,Potency,"activity change, negative = inhibition"
CCOC(=O)c1c(NC(=O)Cc2cccs2)sc(C(=O)N2CCCCC2)c1C,"inconclusive: 7.08 µM [inhibitor, partial curve]",–
Cc1ccc(OCC(=O)NNc2c3ccccc3nc3ccccc23)cc1,"inconclusive: 11.2 µM [inhibitor, partial curve, poor fit]",–
O=C(Nc1ccccc1)NN(C(=O)CCl)c1ccccc1,"inconclusive: 10 µM [inhibitor, partial curve, poor fit]",–
COCCNC(=O)CN(C(=O)Cn1nnc2ccccc21)c1cccc(C)c1C,"inconclusive: 1.26 µM [inhibitor, single point]",–
Cc1sc2ncnc(Sc3ccccc3C(=O)O)c2c1C,–,inactive: -3.11%
CCCN(CCC)C(=O)c1c[nH]c2ccc(S(=O)(=O)N(C)c3ccc(Cl)cc3)cc2c1=O,"inconclusive: 4.47 µM [inhibitor, single point]",–
OCCN1CCN(CCCN2c3ccccc3Sc3ccc(Cl)cc32)CC1,active: 14.6 µM,–
CC(C)CCC1CC(CSC(=N)N)OC1=O (stereo unspecified),"inconclusive: 20.6 µM [inhibitor, single point]",–
C=CCOc1c(Cl)cc(CNCCCN2CCOCC2)cc1OC,–,inactive: 13.1% [at 46.1 µM]
CC1C(=O)N2CCCc3cc(NC(=O)C(=O)NCc4cccnc4)cc1c32 (stereo unspecified),–,inactive: 7.52%
O=C(CSc1nc(=O)n(Cc2ccncc2)c2c1CCC2)Nc1ccccc1,–,inactive: 1.21% [at 46.1 µM]
O=C(CSCc1ccc(Cl)cc1)Nc1ccc(O)cc1C(=O)O,"inconclusive: 5.62 µM [inhibitor, single point]",–
COC(=O)C1=C(C)N(C)C(=S)NC1c1ccc(Cl)cc1 (stereo unspecified),"inconclusive: 35.5 µM [inhibitor, partial curve, poor fit]",–
CN1C(=O)C(O)(c2nnc(-c3ccccc3)o2)c2ccccc21 (stereo unspecified),–,inactive: 3.86%
COc1ccccc1NS(=O)(=O)c1ccc(C)c(NS(=O)(=O)c2cc(C(=O)O)cc(C)c2C)c1,"inconclusive: 35.5 µM [activator, single point]",–
O=C(CCN1C(=O)C2C3C=CC(C3)C2C1=O)N1CCCCC1 (stereo unspecified),"inconclusive: 6.31 µM [inhibitor, single point]",–
Cc1ccsc1C(=O)N/N=C/c1ccc2c(c1)OCO2,"inconclusive: 1.26 µM [inhibitor, full curve, poor fit]",–
CSc1nc(SCC(=O)NCc2ccco2)c2c3c(sc2n1)COC(C)(C)C3,"inconclusive: 9.2 µM [inhibitor, partial curve]",–
O=C(CCCN1C(=O)c2ccccc2C1=O)NC1=NCCS1,"inconclusive: 31.6 µM [activator, single point]",–
O=C1c2ccccc2CN1c1ccccc1,–,inactive: 2.12% [at 46.1 µM]
COc1cc2c(O)c3c(c(-c4ccc5c(c4)OCO5)c2cc1OC)C(=O)OC3,active: 3.66 µM,–
CCOC(=O)c1cc(S(=O)(=O)N(C)Cc2ccccc2)cn1C,active: 12.6 µM,–
COc1ccc(C(CNC(=O)COc2ccc(Cl)c(C)c2)N2CCOCC2)cc1 (stereo unspecified),–,inactive: 1.42% [at 46.1 µM]

# Some of the entries above, set out differently.
SMILES	Potency	activity change, negative = inhibition
Cc1sc2ncnc(Sc3ccccc3C(=O)O)c2c1C	–	inactive: -3.11%
C=CCOc1c(Cl)cc(CNCCCN2CCOCC2)cc1OC	–	inactive: 13.1% [at 46.1 µM]

# Following part.

SMILES,Potency,"activity change, negative = inhibition"
CCCCCCCCCCOC(=O)Cn1c(COc2ccccc2OC)[n+](C)c2ccccc21,"inconclusive: 14.1 µM [inhibitor, single point]",–
c1ccc2sc(Cc3nnc4n3CCCCC4)nc2c1,"inconclusive: 2.91 µM [inhibitor, partial curve, poor fit]",–
Cc1cc2n(n1)C(c1ccccc1)Nc1ccccc1-2 (stereo unspecified),"inconclusive: 1.3 µM [inhibitor, single point]",–
CCCn1nc([N+](=O)[O-])c(C(C#N)c2nc3ccccc3o2)c(Cl)c1=O (stereo unspecified),"inconclusive: 35.5 µM [inhibitor, single point]",–
CCCCSc1ncnc2c1c(-c1ccccc1)cn2-c1cccc(F)c1,–,inactive: 23.8% [at 46.1 µM]
CCN(CC)S(=O)(=O)c1nnc(NC(=O)COc2ccc(Cl)cc2)s1,–,inactive: 24.2% [at 46.1 µM]
CCCCOC(=O)c1c(C)oc2ccc(NS(=O)(=O)c3ccc4c5c(cccc35)C(=O)N4)cc12,"inconclusive: 35.5 µM [inhibitor, single point]",–
Cc1cccc(-n2c(=O)c3c4c(sc3n3cnnc23)CCCC4)c1,–,inactive: 12.4% [at 46.1 µM]
O=C1OC(Nc2nc3ccccc3s2)c2ccccc21 (stereo unspecified),–,inactive: 24%
Cc1cc(=O)n(Cc2cccc(Cl)c2)c2c1c(C)nn2-c1ccccc1,–,inactive: -3.65% [at 46.1 µM]
CCOc1cc(CNc2ccc(O)cc2)ccc1OCc1ccc(Cl)cc1,–,inactive: -12% [at 46.1 µM]
CN(CC(=O)Nc1ccc(S(=O)(=O)N2CCCC2)cc1)Cc1ccc(Cl)c(Cl)c1,"inconclusive: 11.2 µM [inhibitor, single point]",–
COc1ccc(CNC(=O)CN(c2ccccc2)S(=O)(=O)N(C)C)cc1,"inconclusive: 1.12 µM [inhibitor, full curve, poor fit]",–
Cc1ccc(-c2cc(-c3ccccc3)[nH]c(=S)c2C#N)cc1,–,inactive: 4.77%
O=C(CSc1ncc(-c2ccc(F)cc2)n1Cc1ccco1)Nc1ccc2c(c1)OCO2,"inconclusive: 35.5 µM [inhibitor, single point]",–
O=C(Nc1nc2c(cc3c4c(cccc42)CC3)s1)c1ccccc1Cl,"inconclusive: 7.94 µM [activator, partial curve, poor fit]",–
S=c1[nH]nc(COc2ccccc2)n1/N=C/c1ccc(Br)s1,"inconclusive: 6.31 µM [inhibitor, full curve, poor fit]",–
CCCn1c(N)c(C(=O)CSc2nc3ccccc3s2)c(=O)[nH]c1=O,"inconclusive: 0.794 µM [inhibitor, full curve, poor fit]",–
FC(F)(F)c1cccc(C2NCc3ccccc3-n3cccc32)c1 (stereo unspecified),active: 11.2 µM,–
CCCCCC(=O)Nc1cc(S(=O)(=O)N2CCOCC2)ccc1Oc1ccc(OCC)cc1,"inconclusive: 10 µM [inhibitor, partial curve, poor fit]",–
CC(OC(=O)c1ccc2c(c1)OCCO2)C(=O)c1ccccc1 (stereo unspecified),"inconclusive: 8.91 µM [inhibitor, partial curve, poor fit]",–
N#CCC(=O)N/N=C\c1ccc(OC/C=C/c2ccccc2)cc1,"inconclusive: 10 µM [activator, partial curve, poor fit]",–
O=C(O)CC[C@@H](C(=O)O)N1C(=O)c2ccccc2C1=O,"inconclusive: 1.64 µM [activator, full curve, poor fit]",–
